Results taken from the supplement of paper PMC12067093, “Discovery and optimisation of a covalent ligand for TRIM25 and its application to targeted protein ubiquitination” (Chemical Science, 2025).
Some of the results follow.

Amino acid sequences for entries named in this document (tags omitted). A change or cut given only in a name is not applied to a line headed by its entry.
UniProt Q96T51: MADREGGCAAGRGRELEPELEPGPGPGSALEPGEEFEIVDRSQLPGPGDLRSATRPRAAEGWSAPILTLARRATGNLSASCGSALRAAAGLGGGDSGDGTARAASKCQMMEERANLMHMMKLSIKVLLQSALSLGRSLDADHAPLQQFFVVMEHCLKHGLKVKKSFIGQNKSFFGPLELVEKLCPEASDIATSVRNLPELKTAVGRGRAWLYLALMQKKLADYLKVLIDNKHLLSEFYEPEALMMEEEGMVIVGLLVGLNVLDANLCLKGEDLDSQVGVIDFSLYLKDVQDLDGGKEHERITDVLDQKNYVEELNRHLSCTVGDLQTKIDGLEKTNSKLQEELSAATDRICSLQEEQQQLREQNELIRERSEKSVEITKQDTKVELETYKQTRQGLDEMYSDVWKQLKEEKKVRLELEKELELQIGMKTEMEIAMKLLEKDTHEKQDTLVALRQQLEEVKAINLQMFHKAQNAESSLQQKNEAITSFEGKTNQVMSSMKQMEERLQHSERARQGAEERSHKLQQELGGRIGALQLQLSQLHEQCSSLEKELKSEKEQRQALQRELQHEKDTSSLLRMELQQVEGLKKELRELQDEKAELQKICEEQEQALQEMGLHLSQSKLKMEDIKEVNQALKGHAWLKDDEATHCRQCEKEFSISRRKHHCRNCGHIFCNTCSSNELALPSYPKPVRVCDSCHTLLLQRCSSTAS
UniProt P31350, whole entry, looked up: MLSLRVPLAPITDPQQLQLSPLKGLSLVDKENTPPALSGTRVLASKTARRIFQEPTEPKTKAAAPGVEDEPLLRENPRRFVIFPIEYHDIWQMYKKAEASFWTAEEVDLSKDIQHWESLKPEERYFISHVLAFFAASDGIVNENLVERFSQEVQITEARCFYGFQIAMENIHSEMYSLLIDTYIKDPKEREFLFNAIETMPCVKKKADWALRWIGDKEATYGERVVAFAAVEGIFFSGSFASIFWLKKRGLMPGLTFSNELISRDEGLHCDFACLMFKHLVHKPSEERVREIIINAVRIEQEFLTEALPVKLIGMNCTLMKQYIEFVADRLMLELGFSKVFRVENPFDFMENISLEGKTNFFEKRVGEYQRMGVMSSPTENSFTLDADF
UniProt P23921: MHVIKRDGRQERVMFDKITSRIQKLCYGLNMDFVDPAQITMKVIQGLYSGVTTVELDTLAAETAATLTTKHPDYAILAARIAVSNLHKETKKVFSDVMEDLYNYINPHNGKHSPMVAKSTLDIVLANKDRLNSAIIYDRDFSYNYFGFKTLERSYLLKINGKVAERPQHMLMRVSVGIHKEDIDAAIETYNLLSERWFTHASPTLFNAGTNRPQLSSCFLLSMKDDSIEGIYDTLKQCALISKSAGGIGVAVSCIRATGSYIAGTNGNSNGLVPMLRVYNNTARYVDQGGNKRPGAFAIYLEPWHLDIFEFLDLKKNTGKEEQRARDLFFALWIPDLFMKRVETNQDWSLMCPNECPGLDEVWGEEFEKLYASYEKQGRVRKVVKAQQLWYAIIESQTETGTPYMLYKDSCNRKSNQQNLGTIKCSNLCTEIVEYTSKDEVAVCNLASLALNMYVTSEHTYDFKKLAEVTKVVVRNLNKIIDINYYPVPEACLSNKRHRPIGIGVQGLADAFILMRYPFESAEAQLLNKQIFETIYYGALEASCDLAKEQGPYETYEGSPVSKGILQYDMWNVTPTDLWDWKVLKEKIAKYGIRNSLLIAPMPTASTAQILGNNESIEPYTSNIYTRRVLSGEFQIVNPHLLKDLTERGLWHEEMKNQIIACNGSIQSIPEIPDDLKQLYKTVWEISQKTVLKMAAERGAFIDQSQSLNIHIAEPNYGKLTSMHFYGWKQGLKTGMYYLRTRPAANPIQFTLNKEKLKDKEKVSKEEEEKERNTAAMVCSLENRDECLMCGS
UniProt P05109: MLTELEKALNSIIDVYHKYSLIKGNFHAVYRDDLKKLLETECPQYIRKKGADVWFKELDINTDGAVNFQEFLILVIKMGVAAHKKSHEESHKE
UniProt Q9BY42: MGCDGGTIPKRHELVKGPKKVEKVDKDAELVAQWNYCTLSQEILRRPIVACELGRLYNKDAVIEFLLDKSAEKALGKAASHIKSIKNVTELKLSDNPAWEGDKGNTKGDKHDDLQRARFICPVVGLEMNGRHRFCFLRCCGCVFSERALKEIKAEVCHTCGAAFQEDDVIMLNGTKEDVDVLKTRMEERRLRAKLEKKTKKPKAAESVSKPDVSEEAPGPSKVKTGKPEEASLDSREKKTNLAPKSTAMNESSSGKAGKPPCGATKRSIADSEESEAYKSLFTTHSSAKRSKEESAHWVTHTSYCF
UniProt P23443: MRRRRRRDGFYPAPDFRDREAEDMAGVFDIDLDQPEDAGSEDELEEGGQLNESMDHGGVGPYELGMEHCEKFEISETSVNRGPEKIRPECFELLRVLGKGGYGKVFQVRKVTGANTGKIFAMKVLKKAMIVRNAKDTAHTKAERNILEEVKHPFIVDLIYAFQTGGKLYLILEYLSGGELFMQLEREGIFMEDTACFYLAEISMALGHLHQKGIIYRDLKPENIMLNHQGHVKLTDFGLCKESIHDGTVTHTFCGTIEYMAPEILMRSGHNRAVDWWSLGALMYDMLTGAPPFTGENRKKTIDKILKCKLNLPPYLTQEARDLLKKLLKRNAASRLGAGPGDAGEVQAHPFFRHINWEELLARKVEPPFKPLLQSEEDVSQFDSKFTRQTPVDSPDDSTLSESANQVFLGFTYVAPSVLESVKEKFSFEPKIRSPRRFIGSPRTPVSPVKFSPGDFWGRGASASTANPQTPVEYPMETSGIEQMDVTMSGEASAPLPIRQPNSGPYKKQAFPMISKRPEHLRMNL
UniProt P28702: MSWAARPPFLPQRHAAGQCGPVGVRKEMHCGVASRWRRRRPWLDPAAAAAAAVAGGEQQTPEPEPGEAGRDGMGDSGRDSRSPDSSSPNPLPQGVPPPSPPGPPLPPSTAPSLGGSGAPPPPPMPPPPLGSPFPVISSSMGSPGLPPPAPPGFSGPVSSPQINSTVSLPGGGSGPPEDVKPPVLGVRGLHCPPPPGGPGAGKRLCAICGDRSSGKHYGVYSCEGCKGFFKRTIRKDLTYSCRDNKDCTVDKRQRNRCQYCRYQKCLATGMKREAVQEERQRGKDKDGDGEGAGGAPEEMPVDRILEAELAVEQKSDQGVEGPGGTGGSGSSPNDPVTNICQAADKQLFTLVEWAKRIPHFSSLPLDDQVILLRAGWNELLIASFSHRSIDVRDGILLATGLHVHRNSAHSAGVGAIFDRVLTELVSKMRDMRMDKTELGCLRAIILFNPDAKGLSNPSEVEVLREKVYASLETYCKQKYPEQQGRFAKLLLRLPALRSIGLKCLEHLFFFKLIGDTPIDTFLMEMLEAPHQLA
UniProt Q5VWQ0: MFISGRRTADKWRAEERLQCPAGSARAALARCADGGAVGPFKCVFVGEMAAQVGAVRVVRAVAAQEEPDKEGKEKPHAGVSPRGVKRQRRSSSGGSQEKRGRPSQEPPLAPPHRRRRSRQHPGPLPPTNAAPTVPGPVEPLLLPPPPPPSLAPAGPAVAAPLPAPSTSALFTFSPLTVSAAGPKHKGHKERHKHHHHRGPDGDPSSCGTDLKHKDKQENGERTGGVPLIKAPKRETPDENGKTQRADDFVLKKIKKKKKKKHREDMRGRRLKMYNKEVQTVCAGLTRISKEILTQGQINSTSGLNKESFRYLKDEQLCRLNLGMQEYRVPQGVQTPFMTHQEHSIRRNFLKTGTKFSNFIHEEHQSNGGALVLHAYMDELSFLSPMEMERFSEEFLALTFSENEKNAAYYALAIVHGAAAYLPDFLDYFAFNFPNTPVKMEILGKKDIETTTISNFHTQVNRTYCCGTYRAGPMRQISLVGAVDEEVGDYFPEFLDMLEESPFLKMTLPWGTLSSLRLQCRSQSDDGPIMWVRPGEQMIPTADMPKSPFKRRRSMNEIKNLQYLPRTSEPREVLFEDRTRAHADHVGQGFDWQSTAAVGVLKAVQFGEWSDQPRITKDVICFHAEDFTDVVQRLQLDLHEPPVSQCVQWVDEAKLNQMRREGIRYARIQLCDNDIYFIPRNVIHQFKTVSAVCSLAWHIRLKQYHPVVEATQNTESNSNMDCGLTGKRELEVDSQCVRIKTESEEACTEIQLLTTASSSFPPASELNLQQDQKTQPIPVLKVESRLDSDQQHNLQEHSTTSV
UniProt Q86VV8: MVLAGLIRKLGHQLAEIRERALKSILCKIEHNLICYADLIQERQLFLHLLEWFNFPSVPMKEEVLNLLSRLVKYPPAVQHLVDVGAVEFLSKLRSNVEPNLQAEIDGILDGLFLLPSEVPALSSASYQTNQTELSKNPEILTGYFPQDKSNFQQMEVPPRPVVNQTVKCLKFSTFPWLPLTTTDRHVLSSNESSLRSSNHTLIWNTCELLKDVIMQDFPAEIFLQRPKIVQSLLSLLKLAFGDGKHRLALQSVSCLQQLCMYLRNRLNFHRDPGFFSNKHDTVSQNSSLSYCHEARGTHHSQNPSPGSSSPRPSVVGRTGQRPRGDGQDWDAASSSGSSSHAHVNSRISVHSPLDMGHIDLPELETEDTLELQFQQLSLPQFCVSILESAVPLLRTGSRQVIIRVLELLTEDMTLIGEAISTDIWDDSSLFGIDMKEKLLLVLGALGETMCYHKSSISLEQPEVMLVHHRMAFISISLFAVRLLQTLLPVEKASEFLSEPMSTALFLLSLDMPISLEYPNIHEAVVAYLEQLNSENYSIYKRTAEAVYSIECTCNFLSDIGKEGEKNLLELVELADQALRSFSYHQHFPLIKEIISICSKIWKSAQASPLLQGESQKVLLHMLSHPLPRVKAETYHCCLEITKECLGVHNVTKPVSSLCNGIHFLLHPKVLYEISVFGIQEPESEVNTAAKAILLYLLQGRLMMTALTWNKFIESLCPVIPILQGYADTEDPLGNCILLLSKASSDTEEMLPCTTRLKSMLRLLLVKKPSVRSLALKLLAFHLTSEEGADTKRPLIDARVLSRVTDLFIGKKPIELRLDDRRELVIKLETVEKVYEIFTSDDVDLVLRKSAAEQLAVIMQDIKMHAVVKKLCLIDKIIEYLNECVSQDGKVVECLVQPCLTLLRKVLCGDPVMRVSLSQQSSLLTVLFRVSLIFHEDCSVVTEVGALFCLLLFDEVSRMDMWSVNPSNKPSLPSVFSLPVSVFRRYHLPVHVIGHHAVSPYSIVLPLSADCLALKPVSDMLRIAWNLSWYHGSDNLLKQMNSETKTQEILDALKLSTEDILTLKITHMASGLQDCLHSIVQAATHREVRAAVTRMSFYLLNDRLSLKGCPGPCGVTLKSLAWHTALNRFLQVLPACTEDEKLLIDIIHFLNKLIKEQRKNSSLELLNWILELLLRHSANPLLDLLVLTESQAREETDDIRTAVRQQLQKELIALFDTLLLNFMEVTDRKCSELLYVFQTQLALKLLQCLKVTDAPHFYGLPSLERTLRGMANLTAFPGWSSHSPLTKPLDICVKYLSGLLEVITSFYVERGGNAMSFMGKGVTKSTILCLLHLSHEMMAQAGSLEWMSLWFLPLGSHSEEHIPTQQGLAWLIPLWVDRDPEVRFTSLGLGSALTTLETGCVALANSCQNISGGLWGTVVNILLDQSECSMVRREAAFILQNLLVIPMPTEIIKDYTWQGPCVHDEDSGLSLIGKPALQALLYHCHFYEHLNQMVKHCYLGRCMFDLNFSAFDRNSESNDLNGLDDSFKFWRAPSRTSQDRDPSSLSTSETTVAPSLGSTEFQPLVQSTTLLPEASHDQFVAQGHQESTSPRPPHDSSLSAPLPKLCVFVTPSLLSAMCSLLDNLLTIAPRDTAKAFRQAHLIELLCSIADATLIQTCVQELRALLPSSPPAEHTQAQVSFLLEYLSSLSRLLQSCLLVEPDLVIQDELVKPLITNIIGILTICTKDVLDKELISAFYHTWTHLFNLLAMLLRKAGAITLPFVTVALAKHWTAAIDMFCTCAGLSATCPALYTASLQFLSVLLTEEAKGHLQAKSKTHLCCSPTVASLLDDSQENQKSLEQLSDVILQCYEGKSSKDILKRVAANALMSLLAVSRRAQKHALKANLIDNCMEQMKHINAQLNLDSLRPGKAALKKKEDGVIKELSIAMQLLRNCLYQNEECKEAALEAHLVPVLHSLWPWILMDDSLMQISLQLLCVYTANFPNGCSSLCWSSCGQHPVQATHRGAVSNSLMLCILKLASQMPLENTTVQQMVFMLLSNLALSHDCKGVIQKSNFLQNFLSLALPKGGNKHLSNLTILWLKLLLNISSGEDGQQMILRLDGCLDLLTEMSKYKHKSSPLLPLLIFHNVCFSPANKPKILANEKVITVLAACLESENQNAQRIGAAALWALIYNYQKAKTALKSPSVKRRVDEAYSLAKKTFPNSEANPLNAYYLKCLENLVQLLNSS

compound: CC1Cc2ccccc2N1C(=O)C1CCCN(C1)C(=O)CCl (mixture of isomers) [TRIM25 ligand 11 (diastereomer mixture)]; experiment: probe-labelled cysteine peptide fold change vs DMSO (competition) (log2 fold change); higher = less target engagement (more negative = stronger competition); settings: 50 µM; THP-1; incubation time: 4 h
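Note: competitive chemoproteomic profiling in live THP-1 cells with an iodoacetamide desthiobiotin (IA-DTB) probe, comparing probe-labelled peptide intensities in compound-treated cells against DMSO-treated controls.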

Target | probe-labelled cysteine peptide fold change
RPS2_P15880_188_CGSVLVR (UniProt P15880) | -0.112
RUFY1_Q96T51_603_ICEEQEQALQEMGLHLSQSK (UniProt Q96T51) | -0.203
RPS3_P23396_119_ACYGVLR (UniProt P23396) | 0.116
RRM2_P31350_202_EFLFNAIETMPCVK (UniProt P31350) | 0.11
RPS11_P62280_131_DVQIGDIVTVGECR (UniProt P62280) | 0.0835
RPTOR_Q8N122_1047_DSICFWDWEK (UniProt Q8N122) | 0.27
RPS28_P62857_27_TGSQGQCTQVR (UniProt P62857) | -0.0399
RSBN1L_Q6PCB5_610_DVICFHAEDFLEVVQR (UniProt Q6PCB5) | 0.2
RPS12_P25398_50+56_RQAHLCVLASNCDEPMYVK (UniProt P25398) | -0.172
RPS14_P62263_31_EKKEEQVISLGPQVAEGENVFGVCHIFASFNDTFVHVTDLSGK (UniProt P62263) | -0.287
RRM1_P23921_779_NTAAMVCSLENR (UniProt P23921) | -0.0496
RRP8_O43159_320_QRPASLVVADFGCGDCR (UniProt O43159) | 0.0178
RRM2_P31350_317_LIGMNCTLMK (UniProt P31350) | 0.281
RRM1_P23921_662_NQIIACNGSIQSIPEIPDDLK (UniProt P23921) | 0.106
RPS6KA1_Q15418_432_ETIGVGSYSECKR (UniProt Q15418) | -0.833
RUVBL1_Q9Y265_311_YIDQGIAELVPGVLFVDEVHMLDIECFTYLHR (UniProt Q9Y265) | -0.131
S100A8_P05109_42_LLETECPQYIR (UniProt P05109) | -0.229
RPS16_P62249_25_TATAVAHCK (UniProt P62249) | -0.122
SAMD9_Q5K651_975+979_TEVIECGNYCGVR (UniProt Q5K651) | 0.22

Target | probe-labelled cysteine peptide fold change
RUFY1_Q96T51_81_ATGNLSASCGSALR (UniProt Q96T51) | 0.163
RRM1_P23921_492_IIDINYYPVPEACLSNK (UniProt P23921) | 0.171
RTFDC1_Q9BY42_37_DAELVAQWNYCTLSQEILR (UniProt Q9BY42) | 0.254
SAE1_Q9UBE0_342_GNGIVECLGPK (UniProt Q9UBE0) | -0.128
RTFDC1_Q9BY42_51_RPIVACELGR (UniProt Q9BY42) | 0.073
RPS6KB1_P23443_254_ESIHDGTVTHTFCGTIEYMAPEILMR (UniProt P23443) | -0.158
RUFY1_Q96T51_184_LCPEASDIATSVR (UniProt Q96T51) | 0.169
RTCB_Q9Y3I0_485_NVTDVVNTCHDAGISKK (UniProt Q9Y3I0) | -0.261
RUVBL2_Q9Y230_375_IRCEEEDVEMSEDAYTVLTR (UniProt Q9Y230) | 0.0937
RRM1_P23921_779+787_NTAAMVCSLENRDECLMCGS (UniProt P23921) | -0.495
RPS11_P62280_116_NMSVHLSPCFR (UniProt P62280) | -0.328
RXRB_P28702_30_EMHCGVASR (UniProt P28702) | -0.328
RSBN1_Q5VWQ0_207_GPDGDPSSCGTDLK (UniProt Q5VWQ0) | -0.197
RUVBL1_Q9Y265_206_CDTYATEFDLEAEEYVPLPK (UniProt Q9Y265) | 0.0616
RPS12_P25398_106+108_VVGCSCVVVK (UniProt P25398) | 0.161
RTTN_Q86VV8_2128_SSPLLPLLIFHNVCFSPANKPK (UniProt Q86VV8) | 0.216
RPS2_P15880_222_KLLMMAGIDDCYTSAR (UniProt P15880) | -0.607
S100A6_P06703_3_ACPLDQAIGLLVAIFHK (UniProt P06703) | -0.296
RPS27A_P62979_121+126_RECPSDECGAGVFMASHFDR (UniProt P62979) | -0.507
